Experimental data from the supplement of paper PMC8728848.
The other results are listed elsewhere or left out.

Experiments:
Experiment in all cases: glycan array binding signal (z-score within array); higher = stronger binding
Conditions in all cases: glycan notation: IUPAC condensed, linker removed
[1] = molecular target: Neu5Ac(a2-6)GlcNAc(b1-4)GlcNAc
Summary of the method: (§1)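 Glycan array data were curated from 3228 arrays in the Consortium for Functional Glycomics database and kept only where the protein sequence was available. Glycan names were converted to IUPAC-condensed notation, and columns mapping to the same glycan were averaged. The binding signal is a within-array Z-score, averaged across arrays of the same protein sequence at different concentrations or buffers and across linkers. Negative Z-scores can be read as non-binding.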

[2] = molecular target: Neu5Ac(a2-6)GlcNAc(b1-4)GlcNAc(b1-4)GlcNAc
Summary of the method: as §1

[3] = molecular target: Neu5Ac(a2-8)Neu5Ac
Summary of the method: as §1

[4] = molecular target: Neu5Ac(a2-8)Neu5Ac(a2-3)Gal(b1-3)GalNAc(b1-4)[Neu5Ac(a2-3)]Gal(b1-4)Glc
Summary of the method: as §1

[5] = molecular target: Neu5Ac(a2-8)Neu5Ac(a2-3)Gal(b1-3)GalNAc(b1-4)[Neu5Ac(a2-8)Neu5Ac(a2-3)]Gal(b1-4)Glc
Summary of the method: as §1

[6] = molecular target: Neu5Ac(a2-8)Neu5Ac(a2-3)Gal(b1-4)Glc
Summary of the method: as §1

[7] = molecular target: Neu5Ac(a2-8)Neu5Ac(a2-3)Gal(b1-4)GlcNAc
Summary of the method: as §1

[8] = molecular target: Neu5Ac(a2-8)Neu5Ac(a2-3)[Gal(b1-3)GalNAc(b1-4)]Gal(b1-4)Glc
Summary of the method: as §1

[9] = molecular target: Neu5Ac(a2-8)Neu5Ac(a2-3)[GalNAc(b1-4)]Gal(b1-4)Glc
Summary of the method: as §1

[10] = molecular target: Neu5Ac(a2-8)Neu5Ac(a2-8)Neu5Ac
Summary of the method: as §1

[11] = molecular target: Neu5Ac(a2-8)Neu5Ac(a2-8)Neu5Ac(a2-3)Gal(b1-4)Glc
Summary of the method: as §1

[12] = molecular target: Neu5Ac(a2-8)Neu5Ac(a2-8)Neu5Ac(a2-3)[Gal(b1-3)GalNAc(b1-4)]Gal(b1-4)Glc
Summary of the method: as §1

[13] = molecular target: Neu5Ac(a2-8)Neu5Ac(a2-8)Neu5Ac(a2-3)[GalNAc(b1-4)]Gal(b1-4)Glc
Summary of the method: as §1

[14] = molecular target: Neu5Ac(a2-8)Neu5Ac(a2-8)Neu5Ac(a2-8)Neu5Ac(a2-3)[GalNAc(b1-4)]Gal(b1-4)Glc
Summary of the method: as §1

[15] = molecular target: Neu5Ac(a2-8)Neu5Gc(a2-3)Gal(b1-4)GlcNAc
Summary of the method: as §1

[16] = molecular target: Neu5Ac(b2-6)Gal(b1-4)GlcNAc
Summary of the method: as §1

[17] = molecular target: Neu5Ac(b2-6)GalNAc
Summary of the method: as §1

[18] = molecular target: Neu5Ac9Ac(a2-3)Gal(b1-3)GlcNAc
Summary of the method: as §1

[19] = molecular target: Neu5Ac9Ac(a2-3)Gal(b1-4)GlcNAc
Summary of the method: as §1

[20] = molecular target: Neu5Ac9Ac(a2-6)Gal(b1-4)GlcNAc
Summary of the method: as §1

[21] = molecular target: Neu5Gc(a2-3)Gal(b1-3)GlcNAc
Summary of the method: as §1

[22] = molecular target: Neu5Gc(a2-3)Gal(b1-3)[Fuc(a1-4)]GlcNAc
Summary of the method: as §1

[23] = molecular target: Neu5Gc(a2-3)Gal(b1-4)Glc
Summary of the method: as §1

[24] = molecular target: Neu5Gc(a2-3)Gal(b1-4)GlcNAc
Summary of the method: as §1

[25] = molecular target: Neu5Gc(a2-3)Gal(b1-4)GlcNAc(b1-3)Gal(b1-4)GlcNAc(b1-2)Man(a1-3)[Neu5Gc(a2-3)Gal(b1-4)GlcNAc(b1-3)Gal(b1-4)GlcNAc(b1-2)Man(a1-6)]Man(b1-4)GlcNAc(b1-4)GlcNAc
Summary of the method: as §1

[26] = molecular target: Neu5Gc(a2-3)Gal(b1-4)[Fuc(a1-3)]GlcNAc
Summary of the method: as §1

[27] = molecular target: Neu5Gc(a2-6)Gal(b1-4)GlcNAc
Summary of the method: as §1

[28] = molecular target: Neu5Gc(a2-6)GalNAc
Summary of the method: as §1

[29] = molecular target: Neu5Gc(a2-8)Neu5Ac(a2-3)Gal(b1-4)GlcNAc
Summary of the method: as §1

[30] = molecular target: Neu5Gc(a2-8)Neu5Gc(a2-3)Gal(b1-4)GlcNAc
Summary of the method: as §1

[31] = molecular target: Neu5Gc(a2-8)Neu5Gc(a2-3)Gal(b1-4)GlcNAc(b1-3)Gal(b1-4)GlcNAc
Summary of the method: as §1

[32] = molecular target: Neu5Gc(a2-8)Neu5Gc(a2-6)Gal(b1-4)GlcNAc
Summary of the method: as §1

[33] = molecular target: Neu5Gc(b2-6)Gal(b1-4)GlcNAc
Summary of the method: as §1

B1: AT5G17240(42) (Arabidopsis thaliana), Q6NQJ8 (protein)
chain: MDLEHQTMETFLRWAAEIGISDSIDSSRFRDSCLGHSLSVSDFPDAGGRGLGAARELKKGELVLKVPRKALMTTESIIAKDLKLSDAVNLHNSLSSTQILSVCLLYEMSKEKKSFWYPYLFHIPRDYDLLATFGNFEKQALQVEDAVWATEKATAKCQSEWKEAGSLMKELELKPKFRSFQAWLWASATISSRTLHVPWDSAGCLCPVGDLFNYDAPGDYSNTPQGPESANNVEEAGLVVETHSERLTDGGFEEDVNAYCLYARRNYQLGEQVLLCYGTYTNLELLEHYGFMLEENSNDKVFIPLETSLFSLASSWPKDSLYIHQDGKLSFALISTLRLWLIPQSQRDKSVMRLVYAGSQISVKNEILVMKWMSEKCGSVLRDLPTSVTEDTVLLHNIDKLQDPELRLEQKETEAFGSEVRAFLDANCLWDVTVLSGKPIEFSRKTSRMLSKWRWSVQWRLSYKRTLADCISYCNEKMNNLLGTQDRLRDL
glycan array binding signal (z-score) [1]: 0.14 | glycan array binding signal (z-score) [2]: -0.428 | glycan array binding signal (z-score) [3]: -0.265 | glycan array binding signal (z-score) [4]: 0.226 | glycan array binding signal (z-score) [5]: 0.009 | glycan array binding signal (z-score) [6]: 0.309 | glycan array binding signal (z-score) [7]: -0.397 | glycan array binding signal (z-score) [8]: -0.295 | glycan array binding signal (z-score) [9]: 0.186 | glycan array binding signal (z-score) [10]: -0.387 | glycan array binding signal (z-score) [11]: -1.04 | glycan array binding signal (z-score) [12]: -0.648 | glycan array binding signal (z-score) [13]: -0.683 | glycan array binding signal (z-score) [14]: -0.326 | glycan array binding signal (z-score) [15]: -0.142 | glycan array binding signal (z-score) [16]: -0.523 | glycan array binding signal (z-score) [17]: 0.006 | glycan array binding signal (z-score) [18]: -0.271 | glycan array binding signal (z-score) [19]: -0.486 | glycan array binding signal (z-score) [20]: -0.046 | glycan array binding signal (z-score) [21]: -0.009 | glycan array binding signal (z-score) [22]: -0.907 | glycan array binding signal (z-score) [23]: 0.078 | glycan array binding signal (z-score) [24]: -0.479 | glycan array binding signal (z-score) [25]: -0.326 | glycan array binding signal (z-score) [26]: -0.299 | glycan array binding signal (z-score) [27]: 0.865 | glycan array binding signal (z-score) [28]: -0.395 | glycan array binding signal (z-score) [29]: -0.804 | glycan array binding signal (z-score) [30]: -0.313 | glycan array binding signal (z-score) [31]: -0.317 | glycan array binding signal (z-score) [32]: 0.146 | glycan array binding signal (z-score) [33]: 0.103
